{"source": "paper PMC5457438", "test_system": "T1, MaeR D54A (Lacticaseibacillus (Lactobacillus) casei BL23)", "T1 sequence (looked up)": "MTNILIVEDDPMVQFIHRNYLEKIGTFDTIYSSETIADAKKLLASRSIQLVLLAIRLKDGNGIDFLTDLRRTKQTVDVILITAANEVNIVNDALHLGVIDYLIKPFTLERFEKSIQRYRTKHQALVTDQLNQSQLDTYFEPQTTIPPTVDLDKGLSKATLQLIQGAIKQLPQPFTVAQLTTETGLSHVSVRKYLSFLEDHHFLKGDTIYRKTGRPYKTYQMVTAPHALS", "assay": "EMSA", "conditions": "acetylP 1-10 mM; EMSA: 15 ul of 2.5 mM Tris-HCl pH 7.5, 100 mM NaCl, 25 mM MgCl2, 0.25 mM EDTA, 0.25 mM DTT, 10% glycerol, 1.5 ug salmon sperm DNA, 100 ng DNA, 62-375 ng protein; recombinant protein; residues 1-229; protein details: His tag (pQE80-type vector, HisTrap purified); probe letters rebuilt from the primers and the genome", "note": "Negatives hold for the conditions tested. At least one verdict rests on a figure or table, not on a statement of the authors. Protein sequences can lack the tags named with them.", "data": [{"sequence": "CGTTGATTTGTTGGGTGTAACCGTCTTGTTCTCCATGTTTCCTTACCCCCAATCTTTTGTTACTTACAGCATATTGTAAGCGCTTCATCAGGGGAAGATTATTTAACTTATTAAACCATAAACCCATTTATTTAAGCGATTGTTTTACTATTCACAAGATGGTTTCTCTACTGAACAGGAGTATGATCATGAAAATAAAAGGATGGCGGCTATGGGGCT (double strand) [mae promoter (maeP-maeK intergenic region, 219 bp)]", "values": [{"measurement": "binding result", "result": "no binding"}]}]}
